Reference: PMC11536665
Results are given in words; binding and its absence hold for the method and conditions named. For part of these data: In cells and extracts the contact can be indirect. Some results given as binding are weak or reduced against the parent protein; the word gives no strength. For part of these data: Tags and fused reporters may be left off the sequences shown. Blank lines part the entries; values can stand above or below the molecule they belong to.

Protein sequences, listed by entry. Tags and fused reporters are not part of them.
UniProt A0A385XRK7: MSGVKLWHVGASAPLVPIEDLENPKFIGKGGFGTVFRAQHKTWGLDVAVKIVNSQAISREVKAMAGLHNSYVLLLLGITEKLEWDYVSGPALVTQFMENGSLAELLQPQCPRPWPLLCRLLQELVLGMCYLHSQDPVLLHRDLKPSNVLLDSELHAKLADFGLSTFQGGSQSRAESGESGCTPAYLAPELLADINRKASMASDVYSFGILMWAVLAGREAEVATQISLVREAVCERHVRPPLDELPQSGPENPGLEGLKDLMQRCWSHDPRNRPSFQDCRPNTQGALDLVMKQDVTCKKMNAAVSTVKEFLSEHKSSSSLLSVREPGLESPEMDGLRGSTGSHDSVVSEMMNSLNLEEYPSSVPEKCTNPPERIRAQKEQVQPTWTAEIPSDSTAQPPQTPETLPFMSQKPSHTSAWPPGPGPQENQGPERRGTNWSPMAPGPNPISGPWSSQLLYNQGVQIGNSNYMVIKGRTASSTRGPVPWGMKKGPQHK

Assays:
[1] = molecular target: T1, Flag-ZBP1 (porcine) (porcine); test: co-IP; 293T cells co-transfected for 48 h; lysates with 2 μg of specific primary antibodies overnight at 4 °C, Protein A/G magnetic beads, 3 washes; Western blot
T1 sequence: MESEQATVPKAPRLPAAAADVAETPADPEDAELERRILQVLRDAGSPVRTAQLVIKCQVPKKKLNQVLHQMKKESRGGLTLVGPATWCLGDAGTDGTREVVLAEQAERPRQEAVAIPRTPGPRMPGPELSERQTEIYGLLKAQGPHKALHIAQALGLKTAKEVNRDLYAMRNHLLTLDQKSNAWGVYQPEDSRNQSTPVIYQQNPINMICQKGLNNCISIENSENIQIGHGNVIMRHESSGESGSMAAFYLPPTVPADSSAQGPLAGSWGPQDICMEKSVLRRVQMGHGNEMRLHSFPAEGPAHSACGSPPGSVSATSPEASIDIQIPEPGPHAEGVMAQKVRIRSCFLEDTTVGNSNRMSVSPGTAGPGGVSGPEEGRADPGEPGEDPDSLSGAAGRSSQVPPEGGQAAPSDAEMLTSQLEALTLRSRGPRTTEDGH

[2] = molecular target: RIPK3, endogenous in porcine granulosa cells (porcine (endogenous in granulosa cells)); test: SEC; lysate of granulosa cells from porcine atretic follicles (20 mmol/L Tris, 150 mmol/L NaCl, 1% Triton X-100) on Superose 6 Increase 10/300 GL in PBS pH 7.4, 4 °C; fractions analysed by Western blotting
[3] = molecular target: Myc-RIPK3 (porcine) (porcine); test: co-IP; 293T cells co-transfected for 48 h; lysates with 2 μg of specific primary antibodies overnight at 4 °C, Protein A/G magnetic beads, 3 washes; Western blot

binding [1]: binds
Molecule: Myc-RIPK3 (porcine) (from UniProt A0A385XRK7 1-493)

binding [2]: binds
B1: ZBP1, endogenous in porcine granulosa cells (protein, UniProt A0A288CFW7 1-438)
chain: MESEQATVPKAPRLPAAAADVAETPADPEDAELERRILQVLRDAGSPVRTAQLVIKCQVPKKKLNQVLHQMKKESRGGLTLVGPATWCLGDAGTDGTREVVLAEQAERPRQEAVAIPRTPGPRMPGPELSERQTEIYGLLKAQGPHKALHIAQALGLKTAKEVNRDLYAMRNHLLTLDQKSNAWGVYQPEDSRNQSTPVIYQQNPINMICQKGLNNCISIENSENIQIGHGNVIMRHESSGESGSMAAFYLPPTVPADSSAQGPLAGSWGPQDICMEKSVLRRVQMGHGNEMRLHSFPAEGPAHSACGSPPGSVSATSPEASIDIQIPEPGPHAEGVMAQKVRIRSCFLEDTTVGNSNRMSVSPGTAGPGGVSGPEEGRADPGEPGEDPDSLSGAAGRSSQVPPEGGQAAPSDAEMLTSQLEALTLRSRGPRTTEDGH

binding [3]: binds
B2: Flag-ZBP1 (porcine) (protein, UniProt A0A288CFW7 1-438)
chain: MESEQATVPKAPRLPAAAADVAETPADPEDAELERRILQVLRDAGSPVRTAQLVIKCQVPKKKLNQVLHQMKKESRGGLTLVGPATWCLGDAGTDGTREVVLAEQAERPRQEAVAIPRTPGPRMPGPELSERQTEIYGLLKAQGPHKALHIAQALGLKTAKEVNRDLYAMRNHLLTLDQKSNAWGVYQPEDSRNQSTPVIYQQNPINMICQKGLNNCISIENSENIQIGHGNVIMRHESSGESGSMAAFYLPPTVPADSSAQGPLAGSWGPQDICMEKSVLRRVQMGHGNEMRLHSFPAEGPAHSACGSPPGSVSATSPEASIDIQIPEPGPHAEGVMAQKVRIRSCFLEDTTVGNSNRMSVSPGTAGPGGVSGPEEGRADPGEPGEDPDSLSGAAGRSSQVPPEGGQAAPSDAEMLTSQLEALTLRSRGPRTTEDGH
